Results are given in words; binding and its absence hold for the method and conditions named. In cells and extracts the contact can be indirect. Here binding means that the protein was enriched with, or labelled near, the bait; the list need not be complete. Sequences can lack the tags named with a protein.

By UniProt entry, the sequences of proteins in these tests, tags left out.
UniProt Q9D898: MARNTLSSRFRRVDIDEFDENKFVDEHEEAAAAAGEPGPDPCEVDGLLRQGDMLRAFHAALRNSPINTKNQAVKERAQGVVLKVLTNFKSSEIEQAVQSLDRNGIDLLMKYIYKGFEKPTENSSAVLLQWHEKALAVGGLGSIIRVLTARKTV
UniProt Q7TPR4: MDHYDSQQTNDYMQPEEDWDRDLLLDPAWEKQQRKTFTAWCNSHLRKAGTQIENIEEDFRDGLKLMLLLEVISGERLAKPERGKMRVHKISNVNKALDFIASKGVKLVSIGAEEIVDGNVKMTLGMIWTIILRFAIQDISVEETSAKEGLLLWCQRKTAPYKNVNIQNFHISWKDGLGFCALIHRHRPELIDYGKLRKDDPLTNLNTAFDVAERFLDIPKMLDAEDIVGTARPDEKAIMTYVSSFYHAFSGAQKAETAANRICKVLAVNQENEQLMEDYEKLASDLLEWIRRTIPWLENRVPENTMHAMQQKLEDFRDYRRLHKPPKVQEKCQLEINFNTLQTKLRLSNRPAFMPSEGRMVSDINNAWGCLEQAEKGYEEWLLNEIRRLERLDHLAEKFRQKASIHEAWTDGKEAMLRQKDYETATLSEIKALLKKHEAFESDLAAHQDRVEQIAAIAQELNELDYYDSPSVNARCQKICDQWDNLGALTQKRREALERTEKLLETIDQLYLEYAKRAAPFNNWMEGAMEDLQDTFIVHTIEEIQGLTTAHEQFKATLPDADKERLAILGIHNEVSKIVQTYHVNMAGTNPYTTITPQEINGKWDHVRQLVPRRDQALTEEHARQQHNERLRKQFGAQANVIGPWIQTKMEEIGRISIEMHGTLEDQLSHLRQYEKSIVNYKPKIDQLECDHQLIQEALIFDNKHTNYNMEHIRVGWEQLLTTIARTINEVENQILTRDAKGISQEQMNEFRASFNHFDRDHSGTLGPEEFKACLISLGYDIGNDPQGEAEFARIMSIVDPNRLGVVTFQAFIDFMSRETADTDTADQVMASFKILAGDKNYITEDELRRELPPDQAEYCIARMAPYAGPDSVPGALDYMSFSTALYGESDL
UniProt P57780: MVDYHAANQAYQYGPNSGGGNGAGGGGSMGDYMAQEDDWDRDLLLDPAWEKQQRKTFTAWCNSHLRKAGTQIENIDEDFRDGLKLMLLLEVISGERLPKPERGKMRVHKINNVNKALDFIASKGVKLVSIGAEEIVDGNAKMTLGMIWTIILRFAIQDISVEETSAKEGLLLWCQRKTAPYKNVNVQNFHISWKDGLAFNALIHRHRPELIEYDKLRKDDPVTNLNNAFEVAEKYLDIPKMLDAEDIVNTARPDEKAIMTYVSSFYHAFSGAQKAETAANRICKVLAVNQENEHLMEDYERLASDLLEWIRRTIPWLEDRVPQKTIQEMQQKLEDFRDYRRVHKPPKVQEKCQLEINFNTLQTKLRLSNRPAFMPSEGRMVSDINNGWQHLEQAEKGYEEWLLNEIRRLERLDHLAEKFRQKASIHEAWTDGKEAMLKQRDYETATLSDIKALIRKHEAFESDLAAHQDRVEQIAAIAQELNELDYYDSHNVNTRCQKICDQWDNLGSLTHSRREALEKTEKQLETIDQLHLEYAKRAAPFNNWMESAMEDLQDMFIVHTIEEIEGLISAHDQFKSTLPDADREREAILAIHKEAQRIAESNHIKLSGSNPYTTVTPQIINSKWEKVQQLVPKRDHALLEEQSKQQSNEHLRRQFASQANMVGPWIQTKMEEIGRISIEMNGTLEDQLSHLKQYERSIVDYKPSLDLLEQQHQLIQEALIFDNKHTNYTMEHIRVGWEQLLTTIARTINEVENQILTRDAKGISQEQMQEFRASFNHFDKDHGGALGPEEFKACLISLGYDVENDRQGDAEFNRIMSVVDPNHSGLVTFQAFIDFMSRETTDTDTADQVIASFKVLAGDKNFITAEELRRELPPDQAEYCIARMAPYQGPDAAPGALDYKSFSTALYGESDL
UniProt Q8K341: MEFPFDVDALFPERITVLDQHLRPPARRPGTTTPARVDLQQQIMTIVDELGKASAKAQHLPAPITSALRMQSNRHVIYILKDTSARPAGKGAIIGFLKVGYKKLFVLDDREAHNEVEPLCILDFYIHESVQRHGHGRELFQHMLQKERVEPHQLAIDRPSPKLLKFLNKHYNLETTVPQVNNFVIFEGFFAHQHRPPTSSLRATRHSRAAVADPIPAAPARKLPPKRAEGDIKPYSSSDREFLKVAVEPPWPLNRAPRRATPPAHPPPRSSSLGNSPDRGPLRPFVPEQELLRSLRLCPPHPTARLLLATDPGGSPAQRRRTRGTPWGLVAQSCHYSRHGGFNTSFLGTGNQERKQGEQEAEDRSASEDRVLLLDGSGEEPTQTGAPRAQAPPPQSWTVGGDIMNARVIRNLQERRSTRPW
UniProt Q02248: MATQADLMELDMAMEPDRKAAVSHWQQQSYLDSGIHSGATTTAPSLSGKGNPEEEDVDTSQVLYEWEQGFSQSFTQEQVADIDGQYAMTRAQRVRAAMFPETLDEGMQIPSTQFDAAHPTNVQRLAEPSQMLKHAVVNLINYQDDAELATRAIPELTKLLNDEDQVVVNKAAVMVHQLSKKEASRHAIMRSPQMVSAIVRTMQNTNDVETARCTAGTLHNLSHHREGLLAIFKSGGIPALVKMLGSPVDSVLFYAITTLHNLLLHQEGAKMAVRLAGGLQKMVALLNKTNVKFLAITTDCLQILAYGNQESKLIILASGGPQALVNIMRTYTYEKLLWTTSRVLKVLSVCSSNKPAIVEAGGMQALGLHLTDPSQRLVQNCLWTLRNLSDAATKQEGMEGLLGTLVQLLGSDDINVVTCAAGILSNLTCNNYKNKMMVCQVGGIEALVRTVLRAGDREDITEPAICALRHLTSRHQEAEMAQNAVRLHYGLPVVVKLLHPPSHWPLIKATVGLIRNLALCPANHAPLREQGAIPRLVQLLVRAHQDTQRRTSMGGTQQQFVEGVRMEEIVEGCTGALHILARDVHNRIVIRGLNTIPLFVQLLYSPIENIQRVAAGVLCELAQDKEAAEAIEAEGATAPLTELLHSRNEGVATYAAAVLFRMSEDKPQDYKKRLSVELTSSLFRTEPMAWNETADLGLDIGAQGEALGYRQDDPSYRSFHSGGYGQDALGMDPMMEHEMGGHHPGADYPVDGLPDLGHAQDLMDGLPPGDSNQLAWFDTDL
UniProt O88487: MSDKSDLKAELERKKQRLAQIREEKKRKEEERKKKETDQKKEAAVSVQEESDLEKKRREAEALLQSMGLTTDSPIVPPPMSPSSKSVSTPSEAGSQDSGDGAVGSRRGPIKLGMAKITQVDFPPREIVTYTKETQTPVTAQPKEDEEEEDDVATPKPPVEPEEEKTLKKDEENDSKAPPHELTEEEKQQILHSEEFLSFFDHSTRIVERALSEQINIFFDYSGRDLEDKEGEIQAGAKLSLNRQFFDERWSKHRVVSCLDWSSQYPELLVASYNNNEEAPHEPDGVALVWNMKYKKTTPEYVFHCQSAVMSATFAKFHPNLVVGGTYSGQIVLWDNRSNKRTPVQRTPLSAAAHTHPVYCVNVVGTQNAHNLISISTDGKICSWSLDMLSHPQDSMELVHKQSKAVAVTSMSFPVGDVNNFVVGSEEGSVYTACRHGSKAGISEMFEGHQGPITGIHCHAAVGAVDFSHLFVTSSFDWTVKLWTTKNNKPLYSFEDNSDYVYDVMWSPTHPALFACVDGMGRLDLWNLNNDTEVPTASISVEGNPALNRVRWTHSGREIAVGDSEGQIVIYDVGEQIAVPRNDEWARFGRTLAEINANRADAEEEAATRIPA
UniProt Q99KJ8: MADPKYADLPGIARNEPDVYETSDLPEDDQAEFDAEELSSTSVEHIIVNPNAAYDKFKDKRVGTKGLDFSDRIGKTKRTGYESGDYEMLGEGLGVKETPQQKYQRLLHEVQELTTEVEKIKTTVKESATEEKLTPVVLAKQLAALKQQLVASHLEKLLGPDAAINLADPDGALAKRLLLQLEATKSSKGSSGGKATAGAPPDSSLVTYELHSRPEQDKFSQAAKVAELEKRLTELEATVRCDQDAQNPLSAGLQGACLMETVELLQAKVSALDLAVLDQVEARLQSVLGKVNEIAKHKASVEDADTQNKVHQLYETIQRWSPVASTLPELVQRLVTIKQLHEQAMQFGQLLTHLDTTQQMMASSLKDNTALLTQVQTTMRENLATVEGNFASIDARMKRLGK
UniProt Q9QZB9: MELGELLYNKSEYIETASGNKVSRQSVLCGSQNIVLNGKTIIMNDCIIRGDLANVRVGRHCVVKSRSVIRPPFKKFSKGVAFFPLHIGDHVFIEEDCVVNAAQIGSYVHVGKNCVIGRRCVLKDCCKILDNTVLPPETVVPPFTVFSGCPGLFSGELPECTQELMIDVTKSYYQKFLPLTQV
UniProt Q6R891: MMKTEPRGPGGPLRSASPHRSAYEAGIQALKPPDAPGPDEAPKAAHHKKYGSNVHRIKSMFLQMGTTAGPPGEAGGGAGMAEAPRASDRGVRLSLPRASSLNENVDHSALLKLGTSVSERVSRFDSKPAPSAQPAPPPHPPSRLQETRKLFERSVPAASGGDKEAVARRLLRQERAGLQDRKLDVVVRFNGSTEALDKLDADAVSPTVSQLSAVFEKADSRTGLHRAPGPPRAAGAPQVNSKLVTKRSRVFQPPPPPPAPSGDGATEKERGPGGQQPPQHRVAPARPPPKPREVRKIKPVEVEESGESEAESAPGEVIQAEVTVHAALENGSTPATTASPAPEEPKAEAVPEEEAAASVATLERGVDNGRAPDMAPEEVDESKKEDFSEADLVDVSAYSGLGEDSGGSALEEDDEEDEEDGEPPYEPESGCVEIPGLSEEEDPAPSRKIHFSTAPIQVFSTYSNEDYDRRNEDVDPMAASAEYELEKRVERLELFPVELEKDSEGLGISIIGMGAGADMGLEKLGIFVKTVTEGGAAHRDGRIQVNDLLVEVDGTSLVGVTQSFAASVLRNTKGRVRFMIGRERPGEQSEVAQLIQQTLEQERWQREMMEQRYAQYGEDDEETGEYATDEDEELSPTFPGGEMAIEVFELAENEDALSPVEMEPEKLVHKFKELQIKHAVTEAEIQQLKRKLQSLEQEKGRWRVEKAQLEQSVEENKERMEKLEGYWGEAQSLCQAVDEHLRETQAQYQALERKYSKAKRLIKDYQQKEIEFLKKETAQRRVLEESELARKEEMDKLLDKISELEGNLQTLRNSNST
UniProt P05213: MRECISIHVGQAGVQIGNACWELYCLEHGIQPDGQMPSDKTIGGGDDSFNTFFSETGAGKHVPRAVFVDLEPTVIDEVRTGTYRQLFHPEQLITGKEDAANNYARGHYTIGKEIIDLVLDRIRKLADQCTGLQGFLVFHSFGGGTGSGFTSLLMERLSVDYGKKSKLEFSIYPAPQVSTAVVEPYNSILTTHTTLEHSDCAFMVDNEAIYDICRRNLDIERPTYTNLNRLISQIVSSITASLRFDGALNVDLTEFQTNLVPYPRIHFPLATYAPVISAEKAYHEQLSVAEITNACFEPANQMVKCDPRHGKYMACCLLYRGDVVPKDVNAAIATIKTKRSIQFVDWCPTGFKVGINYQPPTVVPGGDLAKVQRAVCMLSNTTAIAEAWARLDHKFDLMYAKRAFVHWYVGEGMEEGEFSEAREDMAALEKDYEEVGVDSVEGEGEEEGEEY
UniProt Q9D6F9: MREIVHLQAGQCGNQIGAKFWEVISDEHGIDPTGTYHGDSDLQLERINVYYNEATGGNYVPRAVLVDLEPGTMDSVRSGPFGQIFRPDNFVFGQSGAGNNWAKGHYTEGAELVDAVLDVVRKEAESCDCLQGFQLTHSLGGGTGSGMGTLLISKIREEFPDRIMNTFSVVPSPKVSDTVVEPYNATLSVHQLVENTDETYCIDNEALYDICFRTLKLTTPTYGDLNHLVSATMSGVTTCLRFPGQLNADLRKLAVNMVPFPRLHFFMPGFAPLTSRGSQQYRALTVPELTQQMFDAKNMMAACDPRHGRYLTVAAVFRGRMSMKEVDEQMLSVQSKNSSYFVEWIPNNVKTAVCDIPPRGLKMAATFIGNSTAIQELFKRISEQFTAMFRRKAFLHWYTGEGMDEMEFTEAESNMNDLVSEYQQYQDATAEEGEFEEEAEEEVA
UniProt Q922F4: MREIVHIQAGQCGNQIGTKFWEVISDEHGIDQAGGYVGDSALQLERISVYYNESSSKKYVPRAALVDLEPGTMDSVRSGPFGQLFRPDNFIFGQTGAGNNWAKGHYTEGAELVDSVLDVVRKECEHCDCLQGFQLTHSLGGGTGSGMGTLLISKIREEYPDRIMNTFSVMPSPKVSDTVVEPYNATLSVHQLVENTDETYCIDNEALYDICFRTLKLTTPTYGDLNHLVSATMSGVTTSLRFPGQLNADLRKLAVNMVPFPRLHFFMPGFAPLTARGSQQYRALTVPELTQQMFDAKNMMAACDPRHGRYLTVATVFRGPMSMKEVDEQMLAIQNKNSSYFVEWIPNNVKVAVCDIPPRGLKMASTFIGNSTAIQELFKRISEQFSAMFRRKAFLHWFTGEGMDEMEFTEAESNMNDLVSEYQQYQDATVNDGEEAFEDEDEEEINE

The target in the experiment is T1, HA-tagged doublecortin (HA-DCX), bait of the pull-down (UniProt O43602).
T1 sequence: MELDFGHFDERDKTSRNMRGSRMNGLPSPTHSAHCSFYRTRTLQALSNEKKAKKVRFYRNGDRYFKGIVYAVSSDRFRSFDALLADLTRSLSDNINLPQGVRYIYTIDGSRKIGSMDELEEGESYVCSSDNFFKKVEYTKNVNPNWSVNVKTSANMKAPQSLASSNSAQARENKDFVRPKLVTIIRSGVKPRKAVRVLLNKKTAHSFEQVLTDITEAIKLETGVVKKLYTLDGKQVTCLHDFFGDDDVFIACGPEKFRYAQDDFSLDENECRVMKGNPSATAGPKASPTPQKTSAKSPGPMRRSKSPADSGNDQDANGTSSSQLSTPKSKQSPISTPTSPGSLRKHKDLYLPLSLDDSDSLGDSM
Briefly: affinity purification with mass spectrometry; HA-tagged DCX immobilised on anti-HA agarose beads, mixed with protein lysates from E18 mouse brains, 16 hr at 4°C, washed four times; HA as negative control; only the target purified.
Take “Actin-related protein 2/3 complex subunit 5-like protein (from UniProt Q9D898 1-153)”: the binding entry is on record as “binds”.

Take “Alpha-actinin-1 (from UniProt Q7TPR4 1-892)”: the binding result is reported as “binds”.

Consider “Alpha-actinin-4 (from UniProt P57780 1-912)”, for which the binding entry is on record as “binds”.

Regarding “Alpha-tubulin N-acetyltransferase 1 (from UniProt Q8K341 1-421)”, the binding result is given as “binds”.

For “Catenin beta-1 (from UniProt Q02248 1-781)”, the binding result is reported as “binds”.

Consider “Cytoplasmic dynein 1 intermediate chain 2 (from UniProt O88487 1-612)”, for which the binding entry is “binds”.

On to “Dynactin subunit 2 (from UniProt Q99KJ8 1-402)”, for which the binding entry is reported as “binds”.

Take “Dynactin subunit 5 (from UniProt Q9QZB9 1-182)”: the binding result is reported as “binds”.

Take Neurabin-2 (from UniProt Q6R891 1-817): the binding entry is “binds”.

With “Tubulin alpha-1B chain; tubulin alpha-4A chain (from UniProt P05213 1-451)”, the binding entry is given as “binds”.

Take “Tubulin beta-4A chain (from UniProt Q9D6F9 1-444)”: the binding entry is listed as “binds”.

For “Tubulin beta-6 chain (from UniProt Q922F4 1-447)”, the binding entry is recorded as “binds”.

(Values after PMC9799976.)
